Test results taken from patent publication US20170258870A1.
No constants are given. Whether binding was seen depends on the method and setting.

Sequences of proteins named here, by UniProt entry; tags and fusion partners are left off. A change or cut given only in a name is not applied to a line headed by its entry.
UniProt P04062: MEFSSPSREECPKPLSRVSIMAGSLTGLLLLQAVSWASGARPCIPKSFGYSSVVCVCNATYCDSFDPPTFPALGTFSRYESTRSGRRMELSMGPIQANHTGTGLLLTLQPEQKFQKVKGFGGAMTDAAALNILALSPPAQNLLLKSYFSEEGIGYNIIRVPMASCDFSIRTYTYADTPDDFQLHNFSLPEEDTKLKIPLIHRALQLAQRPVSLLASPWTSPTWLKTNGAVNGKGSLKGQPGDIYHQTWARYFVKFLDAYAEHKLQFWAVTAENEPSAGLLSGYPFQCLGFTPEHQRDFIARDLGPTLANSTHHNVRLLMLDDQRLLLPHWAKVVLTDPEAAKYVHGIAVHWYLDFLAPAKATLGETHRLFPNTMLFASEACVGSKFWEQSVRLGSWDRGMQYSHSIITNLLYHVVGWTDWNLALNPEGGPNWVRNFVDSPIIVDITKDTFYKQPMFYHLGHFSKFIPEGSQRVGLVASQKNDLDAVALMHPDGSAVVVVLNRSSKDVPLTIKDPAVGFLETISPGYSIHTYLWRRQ

Molecular target: recombinant GC (Cerezyme, Genzyme Therapeutics) (UniProt P04062)
Test: condition: 20 nmol peptide with 2 nmol protein in 250 µl; pulldown with biotinylated peptide on streptavidin beads, neutral pH, coomassie

Binder: LREDDEAMDKAYQQKLFVTHTVDE (N-terminal Biotin-Ttds; C-terminus (acid)) [3xD Helix 5 peptide]
- binding: no binding
